# Assay results published in PMC10163288.
# Some of the results follow.
# B1: il2ra_site1_1z92_sap_22_mot_HHH_b1_08214_000000261_0001_20_36_H_._HHH_b1_07477_0001_0000800073_0000001_0_0001_af2pred_0001_1_af2pred_swapped (protein)
# chain: KITIEIENASPLVEKLIRLAKNAPDVEVRTENYNTYTVEVRNERIAEILERYARMAGVKVEVEMS
# B2: il2ra_site2_2erj_sap_13_mot_HHH_b2_05866_000000027_0001_43_57_H_._HHH_b1_01900_0001_0000500025_0000001_0_0001 (protein)
# chain: SSSSSDREEVERLLEEIEKALEEGDEEKVARLILEVVRLAREIGDDELLYEVYRLMRLSVSSSSS
# B3: il2ra_site1_1z92_normal_mot_01209686ea234b34325f918445e6eade_0001_af2_000000154_0001_18_33_H_._HHH_b2_00358_af2_0001_0000500048_0000001_0_af2pred_0001_af2pred_1 (protein)
# chain: SSSSDELEEIAEKIVEELVEELGLSEEDKELLEAAARQAVEAGFSEHSIRLALRALAERLSSSSS
# B4: il2ra_site1_3nfp_sap_17_mot_HHH_b2_07180_000000236_0001_22_38_H_._HHH_b1_03639_0001_0000200009_0000001_0_0001 (protein)
# chain: SSSSSTERAQRIYELMRELAKITDPEELRELLKEAEELAQERGDERLQRDIEWALEMLNSSSSSS
# B5: il2ra_site2_2erj_sap_23_mot_HHH_b1_00839_000000020_0001_43_57_H_._HHH_b2_06385_0001_0000200013_0000001_0_0001 (protein)
# chain: SSSSDKIRRLYKLLVELLELVTRGDEERFEEVAEEVEELVEELDSRTAEEALKNLERLIKSSSSS
# B6: il2ra_site2_3nfp_sap_21_mot_HHH_b1_04762_000000120_0001_42_54_H_._HHH_b2_02550_0001_0000200009_0000001_0_0001 (protein)
# chain: SSSSDLLHRVMQKLLELAEKARSEEEARVALEVYILALEATETNDEELAEEARRLLEELENSSSS
# B7: il2ra_site2_3nfp_sap_21_mot_HHH_b2_00326_000000029_0001_23_39_H_._65f6caabe5f1d29e5f94bb05bf74ecd1_0001_af2_0001_0000800016_0000001_1_0001 (protein)
# chain: SSSSDIEEEVEELLERAKKLLEEGDKFEAFALLADALFLAWQANDPELRELVRRVSKLMGSSSSS
# B8: il2ra_site1_3nfp_sap_14_mot_678a1b28e3afbd0e6d42a78f97d9d1d3_0001_af2_000000264_0001_35_49_H_._76fd10c11be1666c73cf7cbc084f7efb_0001_0001_0000400036_0000001_0_0 … (protein)
# chain: DREEIIREAIERAAKNAGVPSVTVSVHDGEVHVEIEGTDYEAKALARLIEDLARVLGLEVEVEVR
# B9: il2ra_site1_1z92_sap_19_mot_HHH_b2_05589_000000019_0001_42_57_H_._HHH_b2_04672_0001_0000200013_0000001_0_0001_af2pred_0001_af2pred (protein)
# chain: SSSSDLEEDEEIIRVIIEVFKEYHLSLEDLRELHETALRLLEEGVSLEEIERLLRELAHELSSSS
# B10: il2ra_site1_1z92_sap_17_mot_HHH_b2_07164_000000082_0001_1_15_H_._70aef1711e60a8afe3a0277517b0bc39_0001_0001_0000100010_0000001_0_0001 (protein)
# chain: TKEELRELLEEAAEKNDPELVKEVLEFIERDAGDPRLALQYLLILARKLNDPDLERLVKIVAEEH
# B11: il2ra_site1_2b5i_sap_11_mot_HHH_b1_08426_af2_000000046_0001_39_52_H_._HHH_b2_08125_0001_0000200013_0000001_0_0001_af2pred_dldesign_0_af2pred (protein)
# chain: SSSSSEEEREKRKLIVTAIYKARKAGRLDLVEELEKLFREAEEKEDPELLEKAVELAEKLKSSSS
# B12: il2ra_site2_2erj_sap_27_mot_7e1f6796e11acccb4f28c496eb549a56_0001_000000101_0001_18_33_H_._HHH_b2_05848_0001_0000100002_0000001_0_0001 (protein)
# chain: SRLAERLSELFIEGNLEELIERLEEEAEEKGDPELRKVVELLREALEKRDLHLLYEAANLLLALE
# B13: il2ra_site2_3nfp_sap_15_mot_HHH_b2_03534_af2_000000269_0001_23_39_H_._HHH_b2_03417_0001_0000300007_0000001_1_0001 (protein)
# chain: SSSSDSEEYIRAALALAKRAAERNDPWAKKLLEMIRMAIEDNGDEEAEELLEEIERLLRELSSSS
# B14: il2ra_site2_3nfp_normal_mot_HHH_b2_08245_000000023_0001_41_55_H_._HHH_b1_01900_0001_0000200014_0000001_0 (protein)
# chain: SSSSSEDEERVRELLEEAERYYKEGNPEEVRRLLAEAVQIAYENRNSRLFMLVAEVLFKLASSSS
# B15: il2ra_site1_3nfp_normal_mot_HHH_b1_06850_000000137_0001_20_36_H_._07b95291b2aa50a0032af9b2c932e4da_0001_0001_0000200008_0000001_0_af2pred_0001_af2pred_1_swapped (protein)
# chain: SAAEVLVRRLLRDGVPPEEILRRLRESAEKSGLPPEEVLKIILEVARAVGDPELEELVEKELEET
# B16: il2ra_site1_3nfp_sap_24_mot_HHH_b1_03720_af2_000000263_0001_1_17_H_._e4d3c9083c3fc392893eb496235fbbca_0001_0001_0000200017_0000001_0_0001 (protein)
# chain: SSSSTEELQRLFHEAFELAKEGDKEEAQEVLEELIELAREEGDRNLLRSAERALEMLRRGSSSSS
# B17: il2ra_site2_3nfp_sap_24_mot_0136b98644bc9a8eb58b95019b738ebb_0001_1_000000071_0001_1_13_H_._HHH_b1_06774_af2_0001_0000900021_0000001_0_0001 (protein)
# chain: SSSSSSDLEEEVQELLERLKKVSEEERKKLLAKAVRLVWENNNPELYMRIAEALFELASSSSSSS
# B18: il2ra_site2_2erj_sap_14_mot_HHH_b2_02734_000000067_0001_42_55_H_._1caa80fd4e4d8c86599c81cf5b939f25_0001_1_0001_0000200002_0000001_0_0001 (protein)
# chain: SSSSDKEEIEELLEELEEALREGDHHTFAEIFSRVLELIQKLGDEELLKILWELLREHARNSSSS
# Molecular target: il2ra, P01589
# Test: yeast display titration
row,Binder,apparent Kd
1,B1,inactive: no binding seen
2,B2,inactive: no binding seen
3,B3,inactive: no binding seen
4,B4,inactive: no binding seen
5,B5,inactive: no binding seen
6,B6,inactive: no binding seen
7,B7,inactive: no binding seen
8,B8,inactive: no binding seen
9,B9,inactive: no binding seen
10,B10,inactive: no binding seen
11,B11,inactive: no binding seen
12,B12,inactive: no binding seen
13,B13,inactive: no binding seen
14,B14,inactive: no binding seen
15,B15,inactive: no binding seen
16,B16,inactive: no binding seen
17,B17,inactive: no binding seen
18,B18,inactive: no binding seen

# Some of the entries so far, with bars between the fields.
row | Binder | apparent Kd
15 | B15 | inactive: no binding seen
16 | B16 | inactive: no binding seen
17 | B17 | inactive: no binding seen
18 | B18 | inactive: no binding seen
